Test results published in article PMC4684408.

How the values were obtained:
Test in all cases: filter binding
[1] = target: Tt-S15 (Thermus thermophilus) (UniProt Q5SJ76); details: 50 mM Tris/acetate pH 7.5, 20 mM Mg-acetate, 270 mM KCl, 5 mM DTT, 0.02% BSA, RNA <1 nM, 30 min at 25 C (thermophile RNAs also at 55 C), recombinant protein, label: 5'-32P
Gk-S15 = Gk-S15 (UniProt Q5L0I3); details: 50 mM Tris/acetate pH 7.5, 20 mM Mg-acetate, 270 mM KCl, 5 mM DTT, 0.02% BSA, RNA <1 nM, 30 min at 25 C (thermophile RNAs also at 55 C); recombinant protein; label: 5'-32P, 3'-[32P]pCp also tried
Rr-S15 = Rr-S15 (UniProt A0ABD5LGG5); details: 50 mM Tris/acetate pH 7.5, 20 mM Mg-acetate, 270 mM KCl, 5 mM DTT, 0.02% BSA, RNA <1 nM, 30 min at 25 C (thermophile RNAs also at 55 C), recombinant protein, label: 5'-32P
[2] = target: Ec-S15 (Escherichia coli) (UniProt P0ADZ4); details: 50 mM Tris/acetate pH 7.5, 20 mM Mg-acetate, 270 mM KCl, 5 mM DTT, 0.02% BSA, RNA <1 nM, 30 min at 25 C (thermophile RNAs also at 55 C); recombinant protein; label: 5'-32P; letters put together from the description
[3] = letters put together from the description

| Sequence | Kd ([1]; 3'-[32P]pCp also tried) [nM] | Kd (Gk-S15) [nM] | Kd (Rr-S15; 3'-[32P]pCp also tried) [nM] | Kd [2] [nM] | Kd [1, 3] [nM] | Kd (Rr-S15; [3]) [nM] |
| --- | --- | --- | --- | --- | --- | --- |
| ACUGGGAUCGCUGAAUUAGAGAUCGGCGUCCUUUCAUUCUAUAUACUUUGGAGUUUUAAAAUGUCUCUAAGUACUGAAGCAACAGCU [Ec-mRNA WT] | > 500 | > 400 | > 1000 |  |  |  |
| GGCUUGGCGGGAGACCGCCAAAUGGAGGAAGGGGCUCAAAGCGCCUUCCCGCCUGACGGAGGGAAAACAUGCCCAUCACGAA [Tt-mRNA M1] |  |  |  | > 500 | > 500 | > 500 |
| GGCUUGGCGGGAGACCGCCUCGAGGAGGAAGGGGCUCAAAGCGCCUUCCCGCCUGACGGAGGGAAAACAUGCCCAUCACGAA [Tt-mRNA WT] |  |  |  | > 500 |  | > 500 |

Construct, isoform or probe ends are uncertain for at least one entry.
